{"source": "paper PMC5693852", "binders": {"B1": {"name": "secretory leukoprotease inhibitor (SLPI) (protein, UniProt P97430 26-131)", "chain": "GKNDAIKIGACPAKKPAQCLKLEKPQCRTDWECPGKQRCCQDACGSKCVNPVPIRKPVWRKPGRCVKTQARCMMLNPPNVCQRDGQCDGKYKCCEGICGKVCLPPM"}}, "biological_target": "T1, JNK-interacting protein 3 (JIP3) (mouse (endogenous in bone marrow-derived eosinophils of B6 mice)) (UniProt Q9ESN9)", "T1 sequence": "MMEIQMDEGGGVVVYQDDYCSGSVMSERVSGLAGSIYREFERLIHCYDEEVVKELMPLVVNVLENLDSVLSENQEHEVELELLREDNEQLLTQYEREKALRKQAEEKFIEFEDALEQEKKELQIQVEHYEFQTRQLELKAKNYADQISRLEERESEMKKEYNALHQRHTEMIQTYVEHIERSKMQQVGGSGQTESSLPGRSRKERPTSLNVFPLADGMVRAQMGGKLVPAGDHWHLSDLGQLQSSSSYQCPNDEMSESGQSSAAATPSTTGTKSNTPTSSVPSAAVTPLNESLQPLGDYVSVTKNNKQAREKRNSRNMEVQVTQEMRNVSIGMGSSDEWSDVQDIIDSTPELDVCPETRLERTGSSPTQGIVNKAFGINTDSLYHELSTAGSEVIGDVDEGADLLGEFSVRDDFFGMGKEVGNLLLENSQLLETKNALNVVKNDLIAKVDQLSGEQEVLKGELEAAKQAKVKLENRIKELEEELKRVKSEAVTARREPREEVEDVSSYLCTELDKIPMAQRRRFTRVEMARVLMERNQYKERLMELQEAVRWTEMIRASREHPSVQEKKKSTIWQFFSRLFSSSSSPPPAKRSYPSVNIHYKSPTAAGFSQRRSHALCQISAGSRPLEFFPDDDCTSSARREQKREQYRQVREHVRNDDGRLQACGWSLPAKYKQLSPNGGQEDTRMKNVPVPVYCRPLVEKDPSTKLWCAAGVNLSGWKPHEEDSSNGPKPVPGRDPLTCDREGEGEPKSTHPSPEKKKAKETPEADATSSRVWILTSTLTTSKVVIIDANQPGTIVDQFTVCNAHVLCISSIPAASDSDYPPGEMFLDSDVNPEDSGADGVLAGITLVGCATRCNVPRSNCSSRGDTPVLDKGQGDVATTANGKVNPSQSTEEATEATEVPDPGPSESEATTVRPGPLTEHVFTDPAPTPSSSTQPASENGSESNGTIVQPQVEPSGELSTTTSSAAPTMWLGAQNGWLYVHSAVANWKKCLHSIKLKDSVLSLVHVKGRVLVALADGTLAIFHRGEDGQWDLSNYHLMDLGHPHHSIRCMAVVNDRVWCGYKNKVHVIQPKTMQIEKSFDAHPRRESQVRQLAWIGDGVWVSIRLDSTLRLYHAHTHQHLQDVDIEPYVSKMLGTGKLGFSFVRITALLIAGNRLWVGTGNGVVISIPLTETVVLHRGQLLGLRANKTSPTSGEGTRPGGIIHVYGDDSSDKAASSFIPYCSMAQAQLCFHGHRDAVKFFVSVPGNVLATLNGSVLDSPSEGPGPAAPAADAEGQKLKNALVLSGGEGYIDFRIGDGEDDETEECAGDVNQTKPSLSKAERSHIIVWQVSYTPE", "assay": "co-IP; lysates of B6 and Slpi-/- BMEos (5 x 10^6 cells; 1.0% NP-40, 50 mM HEPES pH 7.4, 150 mM NaCl) at the steady state, precleaned, precipitated with mouse anti-JIP3 (F-6) or mouse IgG1 isotype control and Dynabeads protein G; blotted for JIP3 and SLPI", "note": "Results are given in words; binding and its absence hold for the method and conditions named. In cells and extracts the contact can be indirect. Some results given as binding are weak or reduced against the parent protein; the word gives no strength."}
{"binder": "B1", "values": [{"measurement": "binding", "result": "binds"}]}
